Laboratory results: patent US11124519B2, “Cocrystal forms of ((1S,2S,4R)-4-{4-[(1S)-2,3-dihydro-1H-inden-1-ylamino]-7H-pyrrolo [2,3-d]pyrimidin-7-yl}-2-hydroxycyclopentyl) methyl sulfamate, formulations and uses thereof” (Millennium Pharmaceuticals, Inc., priority 2017, dated 2021)
Structures can show the parent of a compound that is named as a salt. Some results were stated once for a whole list of compounds, not compound by compound.

Assay: Chemical stability under temperature/humidity stress, HPLC purity at t=0 and t=14 days
Conditions: at one of the stressed conditions after two weeks

SMILES	Loss of API area percent
NS(=O)(=O)OC[C@@H]1C[C@@H](n2ccc3c(N[C@H]4CCc5ccccc54)ncnc32)C[C@@H]1O [Form A, ((1S,2S,4R)-4-{4-[(1S)-2,3-dihydro-1H-inden-1-ylamino]-7H-pyrrolo[2,3-d]pyrimidin-7-yl}-2-hydroxycyclopentyl)methyl sulfamate]	at least 3%
NS(=O)(=O)OC[C@@H]1C[C@@H](n2ccc3c(N[C@H]4CCc5ccccc54)ncnc32)C[C@@H]1O [HCl, ((1S,2S,4R)-4-{4-[(1S)-2,3-dihydro-1H-inden-1-ylamino]-7H-pyrrolo[2,3-d]pyrimidin-7-yl}-2-hydroxycyclopentyl)methyl sulfamate, reference compound]	at least 3%
